{"source": "paper PMC11063955", "about": "“A multiplexed time-resolved fluorescence resonance energy transfer ultrahigh-throughput screening assay for targeting the SMAD4–SMAD3–DNA complex” (Journal of Molecular Cell Biology, 2023)", "target": "T1, His-tagged SMAD4 WT (Mothers against decapentaplegic homolog 4), Q13485", "T1 chain": "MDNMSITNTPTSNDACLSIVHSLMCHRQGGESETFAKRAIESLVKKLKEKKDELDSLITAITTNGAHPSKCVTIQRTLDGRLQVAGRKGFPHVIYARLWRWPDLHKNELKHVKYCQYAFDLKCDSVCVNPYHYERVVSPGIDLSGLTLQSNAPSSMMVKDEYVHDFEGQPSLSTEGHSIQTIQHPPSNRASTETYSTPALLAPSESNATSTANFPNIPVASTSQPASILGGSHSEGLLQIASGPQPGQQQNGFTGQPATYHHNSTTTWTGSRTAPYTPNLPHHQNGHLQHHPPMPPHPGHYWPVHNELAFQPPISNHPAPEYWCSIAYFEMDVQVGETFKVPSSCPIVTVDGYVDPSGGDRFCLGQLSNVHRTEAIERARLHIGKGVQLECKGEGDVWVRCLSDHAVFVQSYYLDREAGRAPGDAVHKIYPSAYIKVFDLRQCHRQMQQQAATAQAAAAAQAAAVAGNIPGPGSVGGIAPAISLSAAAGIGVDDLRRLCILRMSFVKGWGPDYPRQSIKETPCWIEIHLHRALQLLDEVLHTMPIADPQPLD", "assay": "AlphaScreen or HTRF; multiplexed TR-FRET, PPI read-out (Tb-D2), lysate of HEK293T cells co-expressing His-SMAD4 and Flag-SMAD3 (WT or mutated) with 5'-FAM-SBE4 WT dsDNA; anti-FLAG M2-Tb cryptate and anti-6xHis-D2 antibodies; FRET buffer 20 mM Tris-HCl pH 7.0, 50 mM NaCl, 0.01% NP-40; 4°C for 30 min", "details": "remark: other sources report otherwise", "note": "Results are given in words; binding and its absence hold for the method and conditions named. Some binding calls cover weakened binding; strength is not graded here. Tags and fused reporters may be left off the sequences shown."}
{"binder": "Flag-tagged SMAD3 WT, P84022 1-425 (natural protein) MSSILPFTPPIVKRLLGWKKGEQNGQEEKWCEKAVKSLVKKLKKTGQLDELEKAITTQNVNTKCITIPRSLDGRLQVSHRKGLPHVIYCRLWRWPDLHSHHELRAMELCEFAFNMKKDEVCVNPYHYQRVETPVLPPVLVPRHTEIPAEFPPLDDYSHSIPENTNFPAGIEPQSNIPETPPPGYLSEDGETSDHQMNHSMDAGSPNLSPNPMSPAHNNLDLQPVTYCEPAFWCSISYYELNQRVGETFHASQPSMTVDGFTDPSNSERFCLGLLSNVNRNAAVELTRRHIGRGVRLYYIGGEVFAECLSDSAIFVQSPNCNQRYGWHPATVCKIPPGCNLKIFNNQEFAALLAQSVNQGFEAVYQLTRMCTIRMSFVKGWGAEYRRQTVTSTPCWIELHLNGPLQWLDKVLTQMGSPSIRCSSVS", "values": [{"measurement": "binding", "value": "binds"}]}
